These are yes or no findings as the source states them, for the method shown. A result given as binding can be weak or reduced; the word gives no strength. One block for each binder: values may come before it.
Target: His-tagged NET1ΔC (coated in ELISA) (not stated (chicken or mouse cDNA cloned))
Test: ELISA; NET1ΔC coated; serial dilutions of strep-tagged HSPGs (0.5–500 nM) in solution; detection with strep-HRP; apparent constants; both purified

B2: testican-2 (NP_443720 aa 23-423) (protein, UniProt Q9ER58 23-423)
chain: EGDAKGLKEGETPGNFMEDEQWLSSISQYSGKIKHWNRFRDEVEDDYIKSWEDNQQGDEALDTTKDPCQKVKCSRHKVCVAQGYQRAMCISRKKLEHRIKQPSLKLHGGKDSVCKPCHMAQLASVCGSDGHTYSSVCKLEQQACLSSKQLAVRCEGPCPCPTEQSTASTTDSKSETCTGQDLADLGDRLRDWFQLLRENSKQNGSANSATNPAGLDKSLGASCKDSIGWMFSKLDTSGDLFLDQTELAAINLDKYEVCIRPFFNSCDTYKDGRVSTAEWCFCFWREKPPCLAELERTQIQEAAKKKPGVFIPSCDEDGYYRKMQCDQSRGDCWCVDQLGLELTGTRMHGTPDCDDIVGFSGDFGSGVGWEDEEEKETEEAGEEAEEEEGEAGEADDGGYIW
binding: binds

B3: testican-1 (NP_033288 aa 22-442) (protein, UniProt Q62288 22-442)
chain: RHLDALAGGAALNNANFLDNDQWLSTVSQYDRDKYWNRFRDGIQDDYFRNWNPNKPFDQALDPSKDPCLKVKCSPHKVCVTQDYQTALCVSRKHLLPRQKKGNVAHKHWLGPSNLVKCKPCPVAQSAMVCGSDGHTYTSKCKLEFHACSTGKSLNSLCDGPCPCLPEPEPLKPKAEKSACTDKELRNLASRLKDWFGALHEDANRVIKPTSSDPAQGRFDTSILPICKDSLGWMFNKLDMNYDLLLDHSEINAIYLDKYEPCIKPLFNSCDSFKDGKLSNNEWCYCFQKPAGLPCQNEMNRIQKLSKGKSLLGAFIPRCNEEGYYKATQCHGSTGQCWCVDKYGNELAGSRKQGTVSCEEEQETSGDFGSGGSVVLLDDLEDERELGPKDKEGKLRVRTRAVREDDEDEDDDKEDEVGYIW
binding: binds

Next, values leading:

binding: binds
B1: SMOC-2 (NP_071710 22-447) (protein, UniProt Q8CD91-1 22-447)
chain: QKFSALTFLRVDQDKDRDCSLDCPSSPQKPLCASDGRTFLSRCEFQRAKCKDPQLEIAHRGNCKDVSRCVAERKYTQEQARKEFQQVFIPECNDDGTYSQVQCHSYTGYCWCVTPNGRPISGTAVAHKTPRCPGSINEKVPQREGAGKADDAAAPALETQPQGDEEDIASRYPTLWTEQVKSRQNKTNKNSASSCDQEHQSALEEAKQPKNDNVVIPECAHGGLYKPVQCHPSTGYCWCVLVDTGRPIPGTSTRYEQPKCDNTARAHPAKARDLYKNRPLQGCPGAKKHEFLTSVLDALSTDMVHAVSDPSSSSGRLSEPDPSHTLEERVVHWYFKLLDKNSSGDIGKKEIKPFKRFLRKKSKPKKCVKKFVEYCDMNNDKSITVQELMGCLGVTREEGKANTRKRHTPRGNAESSSSNRQPRKQG

binding: binds
B4: SMOC-1 (NP_071711 aa 26-452) (protein, UniProt Q8BLY1 26-452)
chain: HRTTGPRFLISDRDPPCNPHCPRTQPKPICASDGRSYESMCEYQRAKCRDPALAVVHRGRCKDAGQSKCRLERAQALEQAKKPQEAVFVPECGEDGSFTQVQCHTYTGYCWCVTPDGKPISGSSVQNKTPVCSGPVTDKPLSQGNSGRKVSFRFFLTLNSDDGSKPTPTMETQPVFDGDEITAPTLWIKHLVIKDSKLNNTNVRNSEKVHSCDQERQSALEEARQNPREGIVIPECAPGGLYKPVQCHQSTGYCWCVLVDTGRPLPGTSTRYVMPSCESDARAKSVEADDPFKDRELPGCPEGKKMEFITSLLDALTTDMVQAINSAAPTGGGRFSEPDPSHTLEERVAHWYFSQLDSNSSDDINKREMKPFKRYVKKKAKPKKCARRFTDYCDLNKDKVISLPELKGCLGVSKEGGSLGSFPQGKR

binding: binds
B5: glypican-5 (NP_780709 aa 25-549) (domain or fragment, UniProt Q8CAL5 25-549)
chain: EGVESCEEVRKLFQWRLGGAVKGLPEAPRAGPDLQVCLSKNPTCCTRKMEERYQIAARQDLQQVLQTSSSTLKLLISRNAAAFQETLETLIRQAENYTSILFCNTYRNMALEAAASIQEFFTDVGLYLFGADVNPEEFVNRFFDSLFPLVYNHLINPGVTDSSLQYSECIRMARQDVSPFGNIPKRVMGQMGRSLLPGRTFLQALNLGIEVINTTDHIHFSKECSRALLKMQYCPHCQSLMLSKPCMGYCLNVIRGCLAHMTELNPHWHAYIRSLEELSDAMHGTYDVEHVLLNFHLLVNDAVLQAHLNGQKLLDQVNTICGHPVRTPTQSPRCTFDPSKEKHGMKISARNGEETLANRRKEFINSLRLHGSFYGGLADQLCVNELAAPEGRPCWNGEEIVKSYAQRVVGNGIKAQSANPEVRVRGTDPVVNQIIDKLKHVIQLLRGRSPKPNKWELLQPGSGGGMLENSSGDCDDEDGCGGSGSGEVKRTLKITNWMPDSMNFSDVKQVHRADHGSTLDTTSTG
